# The list shows a part of the results.
# B1: OS9 (Arabidopsis thaliana) (protein)
# chain: MRGSHHHHHHGMASMTGGQQMGRDLYDDDDKSRLQIFPAHLVGTFSRNNREPKYKIEFLPEDSPFHPGDNLESMVMLDKHGNRFLCYLPKEEKATSGWTSSQQNISTVMMETQQLVKLKTPDELLQPLSEKCLFRQEGWWSYEFCHQKYVRQLHVEDENKIVQEFFLGTFDPEATAAFNQTVSDASTDASQRYHSHVYTNGTTCDLTGSPREVEVRFVCAETRAMVTSITELSTCKYALTVQCPTLCKHPLFQLEKPVSHTIHCNAIPVEEDATRNKEEQAVDESPKMIADS
# How the values were obtained:
# Assay in all cases: glycan array binding signal (z-score within array); higher = stronger binding
# Conditions in all cases: glycan notation: IUPAC condensed, linker removed
# [1] = biological target: Gal(b1-3)GalNAc(b1-3)Gal(a1-4)Gal(b1-4)Glc
# Procedure, shortened: (§1)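 Glycan array data came from 3228 arrays in the Consortium for Functional Glycomics database, and only arrays with an available protein sequence were kept. Glycan names were put into IUPAC-condensed notation, and columns mapping to the same glycan were averaged. The binding signal is a within-array Z-score, averaged across arrays of one protein sequence run at different concentrations or buffers and across linkers. A negative Z-score can be read as non-binding.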
# [2] = biological target: Gal(b1-3)GalNAc(b1-4)Gal(b1-4)Glc
# Procedure, shortened: as §1
# [3] = biological target: Gal(b1-3)GalNAc(b1-4)[Neu5Ac(a2-3)]Gal(b1-4)Glc
# Procedure, shortened: as §1
# Gal(b1-3)GlcNAc = biological target: Gal(b1-3)GlcNAc
# Procedure, shortened: as §1
# [4] = biological target: Gal(b1-3)GlcNAc(a1-3)Gal(b1-4)GlcNAc
# Procedure, shortened: as §1
# [5] = biological target: Gal(b1-3)GlcNAc(a1-6)Gal(b1-4)GlcNAc
# Procedure, shortened: as §1
# Gal(b1-3)GlcNAc(b1-2)Man = biological target: Gal(b1-3)GlcNAc(b1-2)Man
# Procedure, shortened: as §1
# [6] = biological target: Gal(b1-3)GlcNAc(b1-2)Man(a1-3)[Gal(b1-3)GlcNAc(b1-2)Man(a1-6)]Man(b1-4)GlcNAc(b1-4)GlcNAc
# Procedure, shortened: as §1
# [7] = biological target: Gal(b1-3)GlcNAc(b1-2)Man(a1-3)[Gal(b1-3)GlcNAc(b1-2)Man(a1-6)]Man(b1-4)GlcNAc(b1-4)[Fuc(a1-6)]GlcNAc
# Procedure, shortened: as §1
# [8] = biological target: Gal(b1-3)GlcNAc(b1-2)Man(a1-3)[GlcNAc(b1-4)][Gal(b1-3)GlcNAc(b1-2)Man(a1-6)]Man(b1-4)GlcNAc(b1-4)GlcNAc
# Procedure, shortened: as §1
# [9] = biological target: Gal(b1-3)GlcNAc(b1-2)[Gal(b1-3)GlcNAc(b1-6)]Man(a1-6)[Gal(b1-3)GlcNAc(b1-2)Man(a1-3)]Man(b1-4)GlcNAc(b1-4)GlcNAc
# Procedure, shortened: as §1
# [10] = biological target: Gal(b1-3)GlcNAc(b1-3)Gal(b1-3)GlcNAc
# Procedure, shortened: as §1
# [11] = biological target: Gal(b1-3)GlcNAc(b1-3)Gal(b1-4)Glc
# Procedure, shortened: as §1
# [12] = biological target: Gal(b1-3)GlcNAc(b1-3)Gal(b1-4)GlcNAc
# Procedure, shortened: as §1
# [13] = biological target: Gal(b1-3)GlcNAc(b1-3)Gal(b1-4)GlcNAc(b1-2)Man(a1-3)[Gal(b1-3)GlcNAc(b1-3)Gal(b1-4)GlcNAc(b1-2)Man(a1-6)]Man(b1-4)GlcNAc(b1-4)GlcNAc
# Procedure, shortened: as §1
# [14] = biological target: Gal(b1-3)GlcNAc(b1-3)Gal(b1-4)GlcNAc(b1-2)[Gal(b1-3)GlcNAc(b1-3)Gal(b1-4)GlcNAc(b1-6)]Man(a1-6)[Gal(b1-3)GlcNAc(b1-3)Gal(b1-4)GlcNAc(b1-2)Man(a1-3)]Man(b1-4)GlcNAc(b1-4)[Fuc(a1-6)]GlcNAc
# Procedure, shortened: as §1
# [15] = biological target: Gal(b1-3)GlcNAc(b1-3)Gal(b1-4)GlcNAc(b1-3)Gal(b1-4)GlcNAc(b1-2)[Gal(b1-3)GlcNAc(b1-3)Gal(b1-4)GlcNAc(b1-3)Gal(b1-4)GlcNAc(b1-6)]Man(a1-6)[Gal(b1-3)GlcNAc(b1-3)Gal(b1-4)GlcNAc(b1-3)Gal(b1-4)GlcNAc(b1-2)Man(a1-3)]Man(b1-4)GlcNAc(b1-4)[Fuc(a1-6)]GlcNAc
# Procedure, shortened: as §1
# [16] = biological target: Gal(b1-3)GlcNAc(b1-3)Gal(b1-4)GlcNAc(b1-6)[Gal(b1-3)GlcNAc(b1-3)]Gal(b1-4)Glc
# Procedure, shortened: as §1
# [17] = biological target: Gal(b1-3)GlcNAc(b1-3)Gal(b1-4)[Fuc(a1-3)]GlcNAc
# Procedure, shortened: as §1
# [18] = biological target: Gal(b1-3)GlcNAc(b1-3)Gal(b1-4)[Fuc(a1-3)]GlcNAc(b1-6)[Gal(b1-3)GlcNAc(b1-3)]Gal(b1-4)Glc
# Procedure, shortened: as §1
# [19] = biological target: Gal(b1-3)GlcNAc(b1-3)GalNAc
# Procedure, shortened: as §1
# [20] = biological target: Gal(b1-3)GlcNAc(b1-6)Gal(b1-4)GlcNAc
# Procedure, shortened: as §1
# [21] = biological target: Gal(b1-3)GlcNAc(b1-6)GalNAc
# Procedure, shortened: as §1
# [22] = biological target: Gal(b1-3)GlcNAc(b1-6)[Gal(b1-3)]GalNAc
# Procedure, shortened: as §1
# Gal(b1-3)GlcNAc6S = biological target: Gal(b1-3)GlcNAc6S
# Procedure, shortened: as §1
# [23] = biological target: Gal(b1-3)[Fuc(a1-4)]GlcNAc
# Procedure, shortened: as §1
# [24] = biological target: Gal(b1-3)[Fuc(a1-4)]GlcNAc(b1-2)Man
# Procedure, shortened: as §1
# [25] = biological target: Gal(b1-3)[Fuc(a1-4)]GlcNAc(b1-2)Man(a1-3)[Gal(b1-3)[Fuc(a1-4)]GlcNAc(b1-2)Man(a1-6)]Man(b1-4)GlcNAc(b1-4)[Fuc(a1-6)]GlcNAc
# Procedure, shortened: as §1
# [26] = biological target: Gal(b1-3)[Fuc(a1-4)]GlcNAc(b1-3)Gal(b1-3)[Fuc(a1-4)]GlcNAc
# Procedure, shortened: as §1
# [27] = biological target: Gal(b1-3)[Fuc(a1-4)]GlcNAc(b1-3)Gal(b1-4)[Fuc(a1-3)]GlcNAc
# Procedure, shortened: as §1
# [28] = biological target: Gal(b1-3)[Fuc(a1-4)]GlcNAc(b1-6)GalNAc
# Procedure, shortened: as §1
# [29] = biological target: Gal(b1-3)[GlcNAc(b1-6)]GalNAc
# Procedure, shortened: as §1
# [30] = biological target: Gal(b1-3)[Neu5Ac(a2-6)]GalNAc
# Procedure, shortened: as §1
# [31] = biological target: Gal(b1-3)[Neu5Ac(a2-6)]GlcNAc(b1-4)Gal(b1-4)Glc
# Procedure, shortened: as §1
# [32] = biological target: Gal(b1-3)[Neu5Ac(b2-6)]GalNAc
# Procedure, shortened: as §1
# Gal(b1-4)Gal = biological target: Gal(b1-4)Gal
# Procedure, shortened: as §1
# [33] = biological target: Gal(b1-4)GalNAc(a1-3)[Fuc(a1-2)]Gal(b1-4)GlcNAc
# Procedure, shortened: as §1
# [34] = biological target: Gal(b1-4)GalNAc(b1-3)[Fuc(a1-2)]Gal(b1-4)GlcNAc
# Procedure, shortened: as §1
binder,measurement,setting,value
B1,glycan array binding signal (z-score),[1],-0.442
same,glycan array binding signal (z-score),[2],-0.4
same,glycan array binding signal (z-score),[3],-0.798
same,glycan array binding signal (z-score),Gal(b1-3)GlcNAc,-0.119
same,glycan array binding signal (z-score),[4],-1.06
same,glycan array binding signal (z-score),[5],0.159
same,glycan array binding signal (z-score),Gal(b1-3)GlcNAc(b1-2)Man,-0.21
same,glycan array binding signal (z-score),[6],-0.444
same,glycan array binding signal (z-score),[7],-0.157
same,glycan array binding signal (z-score),[8],-0.168
same,glycan array binding signal (z-score),[9],-0.551
same,glycan array binding signal (z-score),[10],-1.28
same,glycan array binding signal (z-score),[11],-1.28
same,glycan array binding signal (z-score),[12],-0.982
same,glycan array binding signal (z-score),[13],-0.093
same,glycan array binding signal (z-score),[14],-0.135
same,glycan array binding signal (z-score),[15],2.88
same,glycan array binding signal (z-score),[16],-0.814
same,glycan array binding signal (z-score),[17],-0.414
same,glycan array binding signal (z-score),[18],-0.444
same,glycan array binding signal (z-score),[19],1.33
same,glycan array binding signal (z-score),[20],1.29
same,glycan array binding signal (z-score),[21],1.44
same,glycan array binding signal (z-score),[22],0.651
same,glycan array binding signal (z-score),Gal(b1-3)GlcNAc6S,0.414
same,glycan array binding signal (z-score),[23],0.073
same,glycan array binding signal (z-score),[24],0.58
same,glycan array binding signal (z-score),[25],7.5
same,glycan array binding signal (z-score),[26],-0.51
same,glycan array binding signal (z-score),[27],-0.856
same,glycan array binding signal (z-score),[28],-0.151
same,glycan array binding signal (z-score),[29],1.98
same,glycan array binding signal (z-score),[30],-0.994
same,glycan array binding signal (z-score),[31],-0.96
same,glycan array binding signal (z-score),[32],0.56
same,glycan array binding signal (z-score),Gal(b1-4)Gal,-0.936
same,glycan array binding signal (z-score),[33],-0.832
same,glycan array binding signal (z-score),[34],-0.168

# A portion from further up, for reference:
binder,measurement,setting,value
B1,glycan array binding signal (z-score),[16],-0.814
same,glycan array binding signal (z-score),[17],-0.414
same,glycan array binding signal (z-score),[18],-0.444

# From the supplement of paper PMC8728848
